Measurements from publication PMC8446030.
Results are given in words; binding and its absence hold for the method and conditions named. In cells and extracts the contact can be indirect. Some binding calls cover weakened binding; strength is not graded here.

Target: T1, SOX9 (human (endogenous in LX-2)), P48436
T1 chain: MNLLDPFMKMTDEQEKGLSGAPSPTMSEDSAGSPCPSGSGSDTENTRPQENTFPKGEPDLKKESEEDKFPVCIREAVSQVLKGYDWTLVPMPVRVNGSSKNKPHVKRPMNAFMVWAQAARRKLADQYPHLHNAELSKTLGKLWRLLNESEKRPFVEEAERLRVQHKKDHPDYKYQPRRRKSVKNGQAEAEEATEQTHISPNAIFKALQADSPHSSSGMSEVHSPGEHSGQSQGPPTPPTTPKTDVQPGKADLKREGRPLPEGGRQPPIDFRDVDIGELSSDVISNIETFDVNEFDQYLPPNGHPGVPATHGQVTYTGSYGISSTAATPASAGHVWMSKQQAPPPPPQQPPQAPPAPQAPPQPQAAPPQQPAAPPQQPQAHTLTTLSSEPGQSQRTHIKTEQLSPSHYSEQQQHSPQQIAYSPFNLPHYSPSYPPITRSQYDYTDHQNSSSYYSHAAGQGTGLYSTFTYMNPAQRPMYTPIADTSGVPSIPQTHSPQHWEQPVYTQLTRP
Assay: co-IP; 1 mg total protein lysate of activated LX-2 cells; IP with rabbit monoclonal anti-β-catenin, mouse monoclonal anti-SOX9 or control IgG, 4 °C 4 h, protein A/G PLUS-Agarose; immunoblot with anti-β-catenin or anti-SOX9
Conditions: remark: other sources report otherwise

B1: β-catenin, P35222 1-781 (protein)
chain: MATQADLMELDMAMEPDRKAAVSHWQQQSYLDSGIHSGATTTAPSLSGKGNPEEEDVDTSQVLYEWEQGFSQSFTQEQVADIDGQYAMTRAQRVRAAMFPETLDEGMQIPSTQFDAAHPTNVQRLAEPSQMLKHAVVNLINYQDDAELATRAIPELTKLLNDEDQVVVNKAAVMVHQLSKKEASRHAIMRSPQMVSAIVRTMQNTNDVETARCTAGTLHNLSHHREGLLAIFKSGGIPALVKMLGSPVDSVLFYAITTLHNLLLHQEGAKMAVRLAGGLQKMVALLNKTNVKFLAITTDCLQILAYGNQESKLIILASGGPQALVNIMRTYTYEKLLWTTSRVLKVLSVCSSNKPAIVEAGGMQALGLHLTDPSQRLVQNCLWTLRNLSDAATKQEGMEGLLGTLVQLLGSDDINVVTCAAGILSNLTCNNYKNKMMVCQVGGIEALVRTVLRAGDREDITEPAICALRHLTSRHQEAEMAQNAVRLHYGLPVVVKLLHPPSHWPLIKATVGLIRNLALCPANHAPLREQGAIPRLVQLLVRAHQDTQRRTSMGGTQQQFVEGVRMEEIVEGCTGALHILARDVHNRIVIRGLNTIPLFVQLLYSPIENIQRVAAGVLCELAQDKEAAEAIEAEGATAPLTELLHSRNEGVATYAAAVLFRMSEDKPQDYKKRLSVELTSSLFRTEPMAWNETADLGLDIGAQGEPLGYRQDDPSYRSFHSGGYGQDALGMDPMMEHEMGGHHPGADYPVDGLPDLGHAQDLMDGLPPGDSNQLAWFDTDL
For B1, the binding was “binds”.
